We go through one substance from article doi:10.1101/768242.

Sequences of proteins named here, by UniProt entry; tags and fusion partners are left off. Residues count along the entry.
UniProt P35222: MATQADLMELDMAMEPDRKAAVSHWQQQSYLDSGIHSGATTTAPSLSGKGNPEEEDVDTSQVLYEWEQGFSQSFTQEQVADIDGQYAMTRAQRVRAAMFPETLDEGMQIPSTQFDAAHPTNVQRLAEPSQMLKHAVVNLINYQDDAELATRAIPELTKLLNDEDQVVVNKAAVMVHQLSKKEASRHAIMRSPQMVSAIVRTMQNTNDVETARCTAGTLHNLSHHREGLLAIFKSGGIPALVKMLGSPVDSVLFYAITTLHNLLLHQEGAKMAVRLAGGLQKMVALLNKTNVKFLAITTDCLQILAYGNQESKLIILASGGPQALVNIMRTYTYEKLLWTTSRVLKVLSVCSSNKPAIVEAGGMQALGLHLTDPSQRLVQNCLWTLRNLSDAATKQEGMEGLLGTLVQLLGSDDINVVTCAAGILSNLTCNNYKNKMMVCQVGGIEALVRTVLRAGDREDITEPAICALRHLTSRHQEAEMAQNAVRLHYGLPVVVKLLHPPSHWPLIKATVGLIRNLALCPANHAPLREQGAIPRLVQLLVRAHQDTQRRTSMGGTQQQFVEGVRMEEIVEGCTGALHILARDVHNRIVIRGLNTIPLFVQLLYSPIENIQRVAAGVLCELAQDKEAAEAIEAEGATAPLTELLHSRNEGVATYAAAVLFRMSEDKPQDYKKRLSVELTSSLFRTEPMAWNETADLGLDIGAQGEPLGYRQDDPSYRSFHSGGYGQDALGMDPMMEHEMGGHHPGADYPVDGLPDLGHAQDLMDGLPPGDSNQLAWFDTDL
UniProt O15169, residues 384-518: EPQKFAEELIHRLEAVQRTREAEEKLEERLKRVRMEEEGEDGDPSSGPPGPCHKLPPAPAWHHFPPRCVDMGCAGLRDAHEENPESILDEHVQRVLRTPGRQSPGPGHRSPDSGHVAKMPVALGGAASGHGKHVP

The target in this assay is unprimed β-catenin (human) (UniProt P35222). As to the kind of experiment: BLI. For orientation: In BLI a coated tip is dipped into the sample, and binding shifts an interference pattern.

These are yes or no findings as the source states them, for the method shown. Some results given as binding are weak or reduced against the parent protein; the word gives no strength.

Regarding “Axin_(384-518) (miniAxin) (from UniProt O15169-2 384-518) (domain or fragment)”, the binding result is recorded as “binds”.
